No constants are given. Whether binding was seen depends on the method and setting. In cells and extracts the contact can be indirect. For part of these data: A result given as binding can be weak or reduced; the word gives no strength.
Tests used:
Test in all cases: co-IP; cells transfected with P-gp, MGAT3 plus P-gp, MGAT3 plus P-gp Mut2, or full-length and truncated P-gp; immunoprecipitation and western blot
[1] = molecular target: truncated P-gp Δ1
[2] = molecular target: truncated P-gp Δ2
[3] = molecular target: P-gp Mut2 (mutant at Asn 494) (UniProt P08183)

Chains of the proteins cited; added tags and fusions are not shown. Lines headed by an entry give the natural chain unless they say otherwise; changes in a name come on top.
UniProt P08183: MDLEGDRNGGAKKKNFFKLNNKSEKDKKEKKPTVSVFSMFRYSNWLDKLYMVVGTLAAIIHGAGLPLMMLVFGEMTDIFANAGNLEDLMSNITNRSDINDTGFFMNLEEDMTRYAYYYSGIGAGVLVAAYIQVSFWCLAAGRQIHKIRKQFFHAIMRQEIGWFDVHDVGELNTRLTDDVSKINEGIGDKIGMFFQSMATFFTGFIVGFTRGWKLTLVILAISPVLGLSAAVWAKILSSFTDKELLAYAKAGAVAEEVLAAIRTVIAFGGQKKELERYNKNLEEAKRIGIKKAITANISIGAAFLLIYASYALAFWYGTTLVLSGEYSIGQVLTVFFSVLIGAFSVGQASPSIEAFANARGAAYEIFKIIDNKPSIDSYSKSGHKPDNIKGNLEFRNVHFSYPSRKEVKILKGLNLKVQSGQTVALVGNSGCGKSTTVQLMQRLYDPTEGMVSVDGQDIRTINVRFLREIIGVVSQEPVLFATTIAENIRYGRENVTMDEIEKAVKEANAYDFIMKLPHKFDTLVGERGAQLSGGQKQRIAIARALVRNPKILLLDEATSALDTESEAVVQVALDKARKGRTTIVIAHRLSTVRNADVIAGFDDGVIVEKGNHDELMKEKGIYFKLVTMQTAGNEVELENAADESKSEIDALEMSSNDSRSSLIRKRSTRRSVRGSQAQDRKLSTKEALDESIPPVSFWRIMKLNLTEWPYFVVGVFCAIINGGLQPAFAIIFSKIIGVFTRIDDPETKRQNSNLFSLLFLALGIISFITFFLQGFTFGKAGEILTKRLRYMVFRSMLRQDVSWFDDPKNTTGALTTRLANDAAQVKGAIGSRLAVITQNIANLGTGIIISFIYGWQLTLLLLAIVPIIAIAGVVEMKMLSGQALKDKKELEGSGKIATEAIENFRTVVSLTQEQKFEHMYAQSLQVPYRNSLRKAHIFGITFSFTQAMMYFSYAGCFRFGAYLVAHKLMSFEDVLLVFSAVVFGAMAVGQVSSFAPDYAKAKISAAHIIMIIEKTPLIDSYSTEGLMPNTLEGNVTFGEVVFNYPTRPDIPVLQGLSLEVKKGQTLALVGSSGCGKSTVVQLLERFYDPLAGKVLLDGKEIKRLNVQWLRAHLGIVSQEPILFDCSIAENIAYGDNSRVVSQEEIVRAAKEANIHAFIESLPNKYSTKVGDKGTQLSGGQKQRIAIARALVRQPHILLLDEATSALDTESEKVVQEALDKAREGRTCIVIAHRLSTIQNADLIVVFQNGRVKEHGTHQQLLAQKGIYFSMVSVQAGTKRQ

- binding [1]: binds
- binding [2]: no binding
- binding [3]: binds
B1: VPS4A (protein, UniProt Q9UN37 1-437)
chain: MTTSTLQKAIDLVTKATEEDKAKNYEEALRLYQHAVEYFLHAIKYEAHSDKAKESIRAKCVQYLDRAEKLKDYLRSKEKHGKKPVKENQSEGKGSDSDSEGDNPEKKKLQEQLMGAVVMEKPNIRWNDVAGLEGAKEALKEAVILPIKFPHLFTGKRTPWRGILLFGPPGTGKSYLAKAVATEANNSTFFSVSSSDLMSKWLGESEKLVKNLFELARQHKPSIIFIDEVDSLCGSRNENESEAARRIKTEFLVQMQGVGNNNDGTLVLGATNIPWVLDSAIRRRFEKRIYIPLPEEAARAQMFRLHLGSTPHNLTDANIHELARKTEGYSGADISIIVRDSLMQPVRKVQSATHFKKVCGPSRTNPSMMIDDLLTPCSPGDPGAMEMTWMDVPGDKLLEPVVCMSDMLRSLATTRPTVNADDLLKVKKFSEDFGQES
